Source: patent publication US20260274944A1

Key:
mRAGE-ΔV (mouse) = assay: immunocytochemistry, 250 nM on transfected CHO cells, anti-human Fc detection
mRAGE-ΔV-C1 (mouse) = assay: as above

| binding (mRAGE-ΔV (mouse)) | binding (mRAGE-ΔV-C1 (mouse)) | Binder |
| --- | --- | --- |
| binds | binds | VHH 5-Fc (Fc fusion, not shown: a dimerising Fc or GST) EVQLVESGGGLVQPGGSLRLSCAASGTIFSLNPMGWYRQAPGKQLELVALISDSGTANYADFVRGRFTISRDTTKKTLYLQMNSLEPEDTAVYYCRSTFAAGNFYWGQGTQVTVSS |
| binds | binds | VHH 2-Fc (Fc fusion, not shown: a dimerising Fc or GST) QVQLVQSGGGLVQAGGSLRLSCAASGSVSSIYAMGWYRQAPGKQREWVTTITGRGITDYAASVKGRFTISRDTAKNAVYLQMNNLKPEDTARYYCKIDRRGYAPYWGQGTQVTVSS |

No constants are given. Whether binding was seen depends on the method and setting. Binding calls can cover weak binding; strength is not graded here. Tags and fused reporters may be left off the sequences shown.
